Results reported in the odorant receptor screen of Mainland et al. (2015).
Values joined by “and” are separate entries in the source; they are usually repeats but may differ in a detail not shown here. Identical values can stand only once. Some of the results follow. Single wells; the ratio to wells without odorant was worked out here, and repeats agree poorly.

These compounds were tested on OR13C8 clone 1095 (assay: odorant receptor activation (CRE luciferase / Renilla) (fold of no-odor wells); higher = more activation). Settings: 100 µM.

SMILES | odorant receptor activation
CCCCCC(=O)O [caproic acid] | 0.833
C=C(C)C1CC=CCC1 (stereo not given) [r-limonene] | 1.46 and 1.92
CC1CCC(C(C)C)C(O)C1 (single isomer, unassigned; (+)) [(+)-menthol] | 3.17
O=C1CCCCC1 [Cyclohexanone] | 1.34
CC(=O)c1ccccc1 [acetophenone] | 1.26
COC(=O)c1ccccc1 [methyl benzoate] | 2.3
O=CCc1ccccc1 [phenyl acetaldehyde] | 1.36
C=CC(C)(O)CCC=C(C)C (stereo not given) [linalool] | 1.19
CCCCO [1-butanol] | 2.88
CC/C=C\CCO [cis-3-hexen-1-ol] | 0.81
CC1=CCC(C(C)(C)O)CC1 (stereo not given) [terpineol] | 1.32
CC(C)CCC(=O)O [4-methylvaleric acid] | 1.52
CC1COCc2cc3c(cc21)C(C)(C)C(C)C3(C)C (stereo not given) [galaxolide] | 2.6
CC1CCC(C(C)C)C(O)C1 (single isomer, unassigned; (-)) [(-)-menthol] | 2.69
CC(C)(C)c1ccc(CCC=O)cc1 [bourgeonal] | 0.913
CCCCCCCCOC(C)=O [octyl acetate] | 1.2
CC1=NC(C)SC1C (stereo not given) | 1.43
CC12C=CCC1C1CCC3CC(=O)CCC3(C)C1CC2 (stereo not given) [androstenone] | 1.4
C=C(C)C1CC=C(C)C(=O)C1 (stereo not given) [r-carvone] | 0.848
CC12C=CCC1C1CCC3=CC(=O)CCC3(C)C1CC2 (stereo not given) [androstadienone] | 1.64
CCCCCCCOC(C)=O [heptyl acetate] | 1.54
CC(C)C=O [isobutyraldehyde] | 2.04
CC=Cc1ccc(O)c(OC)c1 [isoeugenol] | 6.25
CCCC(=O)O [butyric acid] | 1.09
CCCCCC(C)=O [2-heptanone] | 1.11
CCCCCCC=O [heptaldehyde] | 1.19 and 1.61
CCCCCCCC=CC=O [2-decenal] | 3.48

These compounds were tested on OR13C9 F197L clone 1096 in the same assay as above. Settings: 100 µM.

SMILES | odorant receptor activation
CCCCCC(=O)O [caproic acid] | 1.17
C=C(C)C1CC=CCC1 (stereo not given) [r-limonene] | 1.33 and 1.58
CC1CCC(C(C)C)C(O)C1 (single isomer, unassigned; (+)) [(+)-menthol] | 25.2
O=C1CCCCC1 [Cyclohexanone] | 1.55
CC(=O)c1ccccc1 [acetophenone] | 0.87
COC(=O)c1ccccc1 [methyl benzoate] | 1.57
O=CCc1ccccc1 [phenyl acetaldehyde] | 1.23
C=CC(C)(O)CCC=C(C)C (stereo not given) [linalool] | 1.17
CCCCO [1-butanol] | 22
CC/C=C\CCO [cis-3-hexen-1-ol] | 0.897
CC1=CCC(C(C)(C)O)CC1 (stereo not given) [terpineol] | 1.09
CC(C)CCC(=O)O [4-methylvaleric acid] | 13.8
CC1COCc2cc3c(cc21)C(C)(C)C(C)C3(C)C (stereo not given) [galaxolide] | 6.73
CC1CCC(C(C)C)C(O)C1 (single isomer, unassigned; (-)) [(-)-menthol] | 30.5
CC(C)(C)c1ccc(CCC=O)cc1 [bourgeonal] | 0.924
CCCCCCCCOC(C)=O [octyl acetate] | 1.31
CC1=NC(C)SC1C (stereo not given) | 1.41
CC12C=CCC1C1CCC3CC(=O)CCC3(C)C1CC2 (stereo not given) [androstenone] | 16.6
C=C(C)C1CC=C(C)C(=O)C1 (stereo not given) [r-carvone] | 1
CC12C=CCC1C1CCC3=CC(=O)CCC3(C)C1CC2 (stereo not given) [androstadienone] | 3.41
CCCCCCCOC(C)=O [heptyl acetate] | 0.981
CC(C)C=O [isobutyraldehyde] | 2.36
CC=Cc1ccc(O)c(OC)c1 [isoeugenol] | 2.2
CCCC(=O)O [butyric acid] | 1.3
CCCCCC(C)=O [2-heptanone] | 0.441
CCCCCCC=O [heptaldehyde] | 1.51 and 2.08
CCCCCCCC=CC=O [2-decenal] | 33.8

These compounds were tested on OR13D1 clone 1338 in the same assay as above. Settings: 100 µM.

SMILES | odorant receptor activation
CCCCCC(=O)O [caproic acid] | 0.708
C=C(C)C1CC=CCC1 (stereo not given) [r-limonene] | 0.869 and 0.429
CC1CCC(C(C)C)C(O)C1 (single isomer, unassigned; (+)) [(+)-menthol] | 0.989
O=C1CCCCC1 [Cyclohexanone] | 0.652
CC(=O)c1ccccc1 [acetophenone] | 0.837
COC(=O)c1ccccc1 [methyl benzoate] | 0.951
O=CCc1ccccc1 [phenyl acetaldehyde] | 1.12
C=CC(C)(O)CCC=C(C)C (stereo not given) [linalool] | 0.986
CCCCO [1-butanol] | 0.992
CC/C=C\CCO [cis-3-hexen-1-ol] | 0.964
CC1=CCC(C(C)(C)O)CC1 (stereo not given) [terpineol] | 0.841
CC(C)CCC(=O)O [4-methylvaleric acid] | 0.838
CC1COCc2cc3c(cc21)C(C)(C)C(C)C3(C)C (stereo not given) [galaxolide] | 5.01 and 2.97
CC1CCC(C(C)C)C(O)C1 (single isomer, unassigned; (-)) [(-)-menthol] | 0.805
CC(C)(C)c1ccc(CCC=O)cc1 [bourgeonal] | 0.707
CCCCCCCCOC(C)=O [octyl acetate] | 1.4
CC1=NC(C)SC1C (stereo not given) | 1.03
CC12C=CCC1C1CCC3CC(=O)CCC3(C)C1CC2 (stereo not given) [androstenone] | 0.979
C=C(C)C1CC=C(C)C(=O)C1 (stereo not given) [r-carvone] | 0.864
CC12C=CCC1C1CCC3=CC(=O)CCC3(C)C1CC2 (stereo not given) [androstadienone] | 1.52 and 0.792
CCCCCCCOC(C)=O [heptyl acetate] | 1.73 and 0.983
CC(C)C=O [isobutyraldehyde] | 1.52 and 0.629
CC=Cc1ccc(O)c(OC)c1 [isoeugenol] | 3.19 and 1.32
CCCC(=O)O [butyric acid] | 0.774
CCCCCC(C)=O [2-heptanone] | 1.16
CCCCCCCC=CC=O [2-decenal] | 0.99
